In this assay the target is recombinant human BACE-1 protein (Homo sapiens (Human), UniProt P56817). Put plainly: Measurement of Inhibition of β-Secretase Activity. It is filed as biochemical. The conditions noted are these: 3 h at 30° C., pH5.0. As to the method:
Zero point five μL of the test compounds (dissolved in N,N′-dimethylsulfoxide) were incubated with 48.5 μL of the fluorescence-quenched peptide substrate solution (Biotin-XSEVNLDAEFRHDSGC-Eu:X=ε-amino-n-capronic acid, Eu=Europium cryptate) and 1 μL of recombinant human BACE-1 protein (R&D systems) for 3 h at 30° C. in the 96 well half-area plate (black color plate, Costar). The substrate peptide was synthesized by reacting with Biotin-XSEVNLDAEFRHDSGC (Peptide Institute) and Cryptate TBPCOOH mono SMP (CIS bio international). […] The enzymatic reaction was performed in sodium acetate buffer (50 mM sodium acetate (pH5.0), 0.008% Triton X-100). After the reaction, a 50 μL of 8.0 μg/mL Streptavidin-XL665 (CIS bio international) dissolved in phosphate buffer (150 mM K2HPO4—KH2PO4 (pH 7.0), 0.008% Triton X-100, 0.8 M KF) was add to each well and incubated for 1 h at 30° C.

Amino acid sequences for entries named in this document (tags omitted). Residues count along the entry.
UniProt P56817, 46-501: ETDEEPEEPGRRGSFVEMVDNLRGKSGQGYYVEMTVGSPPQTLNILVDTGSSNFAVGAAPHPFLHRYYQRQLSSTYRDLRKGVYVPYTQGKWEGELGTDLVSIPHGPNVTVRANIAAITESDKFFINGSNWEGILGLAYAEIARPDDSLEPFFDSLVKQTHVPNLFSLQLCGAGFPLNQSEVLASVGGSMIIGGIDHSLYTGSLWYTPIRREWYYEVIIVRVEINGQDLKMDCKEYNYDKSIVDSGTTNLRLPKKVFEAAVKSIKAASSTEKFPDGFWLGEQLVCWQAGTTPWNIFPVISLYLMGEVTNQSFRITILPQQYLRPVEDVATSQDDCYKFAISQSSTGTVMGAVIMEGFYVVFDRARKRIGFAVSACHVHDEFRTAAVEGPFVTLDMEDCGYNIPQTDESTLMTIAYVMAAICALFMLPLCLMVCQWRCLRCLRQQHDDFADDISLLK

This is an account of results in patent publication US8546380B2, “Aminodihydrothiazine derivatives” (Shionogi & Co., Ltd., priority 2005, dated 2013).

The term IC50 denotes the concentration needed to halve the response being measured. Turning to `CC1(c2cccc(NC(=O)c3ccc(F)cn3)c2)CCSC(N)=N1` (centres unmarked) [Compound 212], the IC50 turned out to be 220 nM.

As to `COCc1cc(NC(=O)c2ccc(Cl)cn2)cc(C2(C)CCSC(N)=N2)c1.Cl` (centres unmarked) [Compound 284], the IC50 is 229 nM.
